In paper doi:10.1101/2025.06.30.662394:
Read-outs that look alike come from different tables or passages of the source. No constants are given. Whether binding was seen depends on the method and setting. Binding seen in cells or lysates may run through a third protein. Here binding means that the protein was enriched with, or labelled near, the bait; the list need not be complete. Where a sequence is shown, tags or fusion partners need not be part of it.

Protein sequences, listed by entry. Tags and fused reporters are not part of them.
UniProt Q9BYB0: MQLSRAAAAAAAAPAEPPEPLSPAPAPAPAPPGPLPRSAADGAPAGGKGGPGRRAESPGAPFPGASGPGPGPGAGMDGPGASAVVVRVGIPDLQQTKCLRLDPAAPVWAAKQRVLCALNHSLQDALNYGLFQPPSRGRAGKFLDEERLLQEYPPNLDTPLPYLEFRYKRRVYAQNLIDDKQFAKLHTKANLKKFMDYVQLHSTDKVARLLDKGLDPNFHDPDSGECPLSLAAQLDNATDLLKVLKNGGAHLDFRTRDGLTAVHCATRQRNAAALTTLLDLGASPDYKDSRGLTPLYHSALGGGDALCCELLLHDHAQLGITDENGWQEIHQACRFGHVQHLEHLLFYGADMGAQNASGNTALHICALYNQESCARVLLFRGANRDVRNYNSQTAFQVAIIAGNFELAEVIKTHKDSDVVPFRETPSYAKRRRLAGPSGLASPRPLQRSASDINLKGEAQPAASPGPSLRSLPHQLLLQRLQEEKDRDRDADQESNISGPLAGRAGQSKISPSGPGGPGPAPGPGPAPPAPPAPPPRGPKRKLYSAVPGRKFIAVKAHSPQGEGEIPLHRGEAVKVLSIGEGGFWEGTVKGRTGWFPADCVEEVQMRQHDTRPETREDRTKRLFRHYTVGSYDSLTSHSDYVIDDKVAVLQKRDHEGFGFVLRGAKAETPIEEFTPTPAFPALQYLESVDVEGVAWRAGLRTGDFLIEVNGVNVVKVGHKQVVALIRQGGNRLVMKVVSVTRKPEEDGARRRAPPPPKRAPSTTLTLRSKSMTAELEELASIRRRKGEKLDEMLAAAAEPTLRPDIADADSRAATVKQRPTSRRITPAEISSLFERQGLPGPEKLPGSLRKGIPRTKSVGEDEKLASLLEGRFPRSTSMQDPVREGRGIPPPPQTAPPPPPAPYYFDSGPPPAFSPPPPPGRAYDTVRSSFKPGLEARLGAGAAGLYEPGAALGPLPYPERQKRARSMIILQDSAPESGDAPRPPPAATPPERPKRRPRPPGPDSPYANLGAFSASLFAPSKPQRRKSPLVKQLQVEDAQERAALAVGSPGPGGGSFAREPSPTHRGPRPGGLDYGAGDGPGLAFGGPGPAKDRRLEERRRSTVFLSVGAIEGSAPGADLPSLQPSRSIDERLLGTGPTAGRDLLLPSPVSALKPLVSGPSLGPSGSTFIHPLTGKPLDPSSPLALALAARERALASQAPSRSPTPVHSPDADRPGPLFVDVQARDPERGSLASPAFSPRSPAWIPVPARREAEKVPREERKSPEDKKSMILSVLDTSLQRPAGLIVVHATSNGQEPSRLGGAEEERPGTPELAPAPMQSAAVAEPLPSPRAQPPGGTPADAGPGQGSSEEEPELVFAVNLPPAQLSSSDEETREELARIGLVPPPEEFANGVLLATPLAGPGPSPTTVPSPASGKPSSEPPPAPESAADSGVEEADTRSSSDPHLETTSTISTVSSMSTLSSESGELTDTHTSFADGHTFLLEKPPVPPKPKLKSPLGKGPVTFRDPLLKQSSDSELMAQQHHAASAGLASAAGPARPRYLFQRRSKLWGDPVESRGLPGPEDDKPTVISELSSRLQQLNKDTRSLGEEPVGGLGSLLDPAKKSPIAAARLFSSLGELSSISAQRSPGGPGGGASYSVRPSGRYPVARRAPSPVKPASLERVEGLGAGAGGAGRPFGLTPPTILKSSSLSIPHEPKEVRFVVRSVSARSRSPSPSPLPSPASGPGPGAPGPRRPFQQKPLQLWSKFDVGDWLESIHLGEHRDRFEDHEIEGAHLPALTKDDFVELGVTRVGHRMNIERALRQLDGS

What was measured:
[1] = target: T1, Lphn2-APEX2 fusion protein (UniProt O95490); assay: proximity labelling
T1 sequence: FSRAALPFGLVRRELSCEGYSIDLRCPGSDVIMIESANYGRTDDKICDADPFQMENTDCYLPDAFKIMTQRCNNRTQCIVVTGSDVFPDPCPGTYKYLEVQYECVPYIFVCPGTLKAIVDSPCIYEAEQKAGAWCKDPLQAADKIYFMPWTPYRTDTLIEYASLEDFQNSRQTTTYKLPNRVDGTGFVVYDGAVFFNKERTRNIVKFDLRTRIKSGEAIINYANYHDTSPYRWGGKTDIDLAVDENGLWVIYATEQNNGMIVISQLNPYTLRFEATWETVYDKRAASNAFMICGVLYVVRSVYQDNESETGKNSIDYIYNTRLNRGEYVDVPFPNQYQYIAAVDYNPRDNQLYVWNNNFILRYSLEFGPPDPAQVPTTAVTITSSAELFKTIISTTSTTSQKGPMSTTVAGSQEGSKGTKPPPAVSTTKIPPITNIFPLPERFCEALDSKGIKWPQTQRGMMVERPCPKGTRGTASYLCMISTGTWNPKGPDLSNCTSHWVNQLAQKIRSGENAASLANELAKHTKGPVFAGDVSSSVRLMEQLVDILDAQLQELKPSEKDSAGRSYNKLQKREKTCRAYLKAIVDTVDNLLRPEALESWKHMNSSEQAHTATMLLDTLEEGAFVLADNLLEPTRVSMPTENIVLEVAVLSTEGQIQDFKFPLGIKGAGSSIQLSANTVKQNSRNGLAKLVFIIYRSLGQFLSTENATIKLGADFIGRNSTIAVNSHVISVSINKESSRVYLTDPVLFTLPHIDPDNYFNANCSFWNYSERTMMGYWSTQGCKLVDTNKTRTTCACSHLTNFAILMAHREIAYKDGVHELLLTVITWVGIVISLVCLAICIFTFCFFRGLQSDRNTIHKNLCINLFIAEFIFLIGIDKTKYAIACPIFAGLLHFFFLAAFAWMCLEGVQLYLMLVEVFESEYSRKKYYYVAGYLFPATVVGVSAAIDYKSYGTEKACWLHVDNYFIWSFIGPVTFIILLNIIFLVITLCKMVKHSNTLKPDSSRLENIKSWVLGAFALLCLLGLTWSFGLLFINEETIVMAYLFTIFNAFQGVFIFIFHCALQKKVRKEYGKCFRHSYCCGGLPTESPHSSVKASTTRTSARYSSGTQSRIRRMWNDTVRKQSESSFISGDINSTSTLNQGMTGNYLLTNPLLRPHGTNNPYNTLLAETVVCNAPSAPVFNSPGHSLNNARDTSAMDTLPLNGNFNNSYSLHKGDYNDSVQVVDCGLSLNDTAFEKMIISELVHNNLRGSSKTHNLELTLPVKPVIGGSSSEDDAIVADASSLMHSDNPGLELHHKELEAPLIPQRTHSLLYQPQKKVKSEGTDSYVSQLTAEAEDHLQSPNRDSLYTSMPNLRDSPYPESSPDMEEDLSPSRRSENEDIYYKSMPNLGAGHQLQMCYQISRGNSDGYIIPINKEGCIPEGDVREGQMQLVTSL

[2] = target: T1, Lphn2-APEX2 fusion protein; assay: proximity labelling; remark: listed apart in the source

Molecule	binding [1]	binding [2]
Shank3 (endogenous) (from UniProt Q9BYB0 1-1806)	binds	–
Endoglin (endogenous) (receptor, UniProt P17813 26-658) ETVHCDLQPVGPERGEVTYTTSQVSKGCVAQAPNAILEVHVLFLEFPTGPSQLELTLQASKQNGTWPREVLLVLSVNSSVFLHLQALGIPLHLAYNSSLVTFQEPPGVNTTELPSFPKTQILEWAAERGPITSAAELNDPQSILLRLGQAQGSLSFCMLEASQDMGRTLEWRPRTPALVRGCHLEGVAGHKEAHILRVLPGHSAGPRTVTVKVELSCAPGDLDAVLILQGPPYVSWLIDANHNMQIWTTGEYSFKIFPEKNIRGFKLPDTPQGLLGEARMLNASIVASFVELPLASIVSLHASSCGGRLQTSPAPIQTTPPKDTCSPELLMSLIQTKCADDAMTLVLKKELVAHLKCTITGLTFWDPSCEAEDRGDKFVLRSAYSSCGMQVSASMISNEAVVNILSSSSPQRKKVHCLNMDSLSFQLGLYLSPHFLQASNTIEPGQQSFVQVRVSPSVSEFLLQLDSCHLDLGPEGGTVELIQGRAAKGNCVSLLSPSPEGDPRFSFLLHFYTVPIPKTGTLSCTVALRPKTGSQDQEVHRTVFMRLNIISPDLSGCTSKGLVLPAVLGITFGAFLIGALLTAALWYIYSHTRSPSKREPVVAVAAPASSESSSTNHSIGSTQSTPCSTSSMA	–	binds
